Assay results taken from paper PMC4669414 (Scientific Reports, 2015).

Test system: PC9/G cells
Assay: cells
Conditions: Homo sapiens, 72 h

How did the IC50 turn out when `COc1cc2ncnc(Nc3ccc(F)c(Cl)c3)c2cc1OCCCN1CCOCC1` [Gef, Gefitinib] was run?
Its IC50 is 4.36 ± 0.47 µM.
